Source: article PMC3316595
Results are given in words; binding and its absence hold for the method and conditions named. Binding seen in cells or lysates may run through a third protein. Some binding calls cover weakened binding; strength is not graded here.

Chains of the proteins cited; added tags and fusions are not shown. Residues count along the entry.
UniProt Q60598, residues 488-546: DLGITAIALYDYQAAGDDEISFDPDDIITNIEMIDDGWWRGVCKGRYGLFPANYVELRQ
UniProt Q05397: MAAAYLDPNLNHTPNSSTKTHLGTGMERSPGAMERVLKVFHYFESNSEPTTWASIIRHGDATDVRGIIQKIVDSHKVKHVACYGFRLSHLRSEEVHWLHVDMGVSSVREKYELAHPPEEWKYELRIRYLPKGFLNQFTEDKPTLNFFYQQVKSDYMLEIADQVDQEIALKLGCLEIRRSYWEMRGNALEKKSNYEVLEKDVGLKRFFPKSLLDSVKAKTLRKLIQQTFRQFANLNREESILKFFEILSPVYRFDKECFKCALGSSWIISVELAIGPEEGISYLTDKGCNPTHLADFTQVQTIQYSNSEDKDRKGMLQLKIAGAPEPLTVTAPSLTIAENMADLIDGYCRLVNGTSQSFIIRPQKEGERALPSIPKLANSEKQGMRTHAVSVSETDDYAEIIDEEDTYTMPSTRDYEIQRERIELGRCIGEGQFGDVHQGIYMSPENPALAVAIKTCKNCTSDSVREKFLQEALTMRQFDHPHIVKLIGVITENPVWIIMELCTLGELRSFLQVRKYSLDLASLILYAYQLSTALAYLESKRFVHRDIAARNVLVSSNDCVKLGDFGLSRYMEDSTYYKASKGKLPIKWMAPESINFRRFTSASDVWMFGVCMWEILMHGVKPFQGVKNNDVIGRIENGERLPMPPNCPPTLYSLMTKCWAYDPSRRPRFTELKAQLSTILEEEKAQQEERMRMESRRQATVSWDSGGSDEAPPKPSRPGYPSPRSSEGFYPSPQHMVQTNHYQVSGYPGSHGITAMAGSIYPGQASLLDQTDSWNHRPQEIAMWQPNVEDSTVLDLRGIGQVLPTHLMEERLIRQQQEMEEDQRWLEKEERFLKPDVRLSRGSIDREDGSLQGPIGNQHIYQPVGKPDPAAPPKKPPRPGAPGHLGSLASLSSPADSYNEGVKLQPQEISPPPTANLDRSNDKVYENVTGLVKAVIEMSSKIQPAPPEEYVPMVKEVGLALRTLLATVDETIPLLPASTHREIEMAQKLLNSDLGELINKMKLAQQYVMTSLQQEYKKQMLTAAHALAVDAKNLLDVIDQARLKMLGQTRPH
UniProt P34152: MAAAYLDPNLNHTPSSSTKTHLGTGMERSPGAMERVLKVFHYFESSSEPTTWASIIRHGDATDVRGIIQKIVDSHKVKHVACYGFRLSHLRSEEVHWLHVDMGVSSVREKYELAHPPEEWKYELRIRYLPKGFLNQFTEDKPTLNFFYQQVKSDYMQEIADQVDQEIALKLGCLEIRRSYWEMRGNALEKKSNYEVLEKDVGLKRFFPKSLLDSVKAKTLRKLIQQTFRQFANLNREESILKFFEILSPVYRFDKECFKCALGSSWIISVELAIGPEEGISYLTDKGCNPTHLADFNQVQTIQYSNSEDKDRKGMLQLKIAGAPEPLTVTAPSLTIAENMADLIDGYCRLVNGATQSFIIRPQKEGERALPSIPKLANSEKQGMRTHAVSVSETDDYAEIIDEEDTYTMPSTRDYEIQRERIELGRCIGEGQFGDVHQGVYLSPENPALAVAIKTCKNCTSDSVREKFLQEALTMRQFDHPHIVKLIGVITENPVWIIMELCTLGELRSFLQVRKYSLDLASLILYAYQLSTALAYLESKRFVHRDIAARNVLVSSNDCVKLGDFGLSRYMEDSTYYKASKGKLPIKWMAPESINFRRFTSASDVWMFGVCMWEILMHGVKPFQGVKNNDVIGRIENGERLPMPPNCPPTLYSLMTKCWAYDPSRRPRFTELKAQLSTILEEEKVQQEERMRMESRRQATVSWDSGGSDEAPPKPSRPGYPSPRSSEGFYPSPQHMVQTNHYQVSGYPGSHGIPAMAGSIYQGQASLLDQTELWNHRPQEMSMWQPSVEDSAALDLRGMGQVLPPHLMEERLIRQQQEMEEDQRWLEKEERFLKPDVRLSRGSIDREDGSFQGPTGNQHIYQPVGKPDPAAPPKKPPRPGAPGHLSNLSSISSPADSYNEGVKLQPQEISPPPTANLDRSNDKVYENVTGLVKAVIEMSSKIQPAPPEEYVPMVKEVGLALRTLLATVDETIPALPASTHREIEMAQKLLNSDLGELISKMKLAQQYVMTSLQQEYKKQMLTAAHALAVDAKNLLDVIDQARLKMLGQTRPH

Columns and labels:
[1] = target: GST-cortactin SH3 domain (mouse) (UniProt Q60598); test: pull-down; GST-SH3 or GST on GSH-beads added to 200 µl RIPA lysate of HeLa cells kept in suspension or spread 3 h on fibronectin; 3 h at 4°C; WB with FAK Ab; only the target purified
[2] = target: GST-cortactin SH3 domain (mouse) (UniProt Q60598); test: pull-down; GST-SH3 with Rsrc cell lysates; data not shown; only the target purified

| binding [1] | binding [2] | Substance |
| --- | --- | --- |
| binds |  | focal adhesion kinase (FAK) (from UniProt Q05397 1-1052) |
|  | binds | focal adhesion kinase (FAK) of Rsrc cells (from UniProt P34152 1-1052) |
